Data taken from patent US10596165B2, “Combination therapies” (resTORbio, Inc., priority 2018, dated 2020).
At least one structure is not confirmed: it was looked up by name or label, or the drawing left a doubt.

Tests used:
[1] = system: PI3K/mTOR; conditions: relatively higher concentrations; cited from earlier work
[2] = system: R6/2 brain slices; experiment: Striatal degeneration: DARPP-32 intensity and neurofilament levels in R6/2 slice cultures; format: cell-based, mouse; conditions: single low-concentrations (everolimus 250 nM; RTB101 50 nM), DIV21
Protocol: Slice cultures were established according to described procedures. (L. Stoppini et al., J. Neurosci. Methods 37(2): 173-82 (1991) and N. Gogolla et al., Nat. Protoc. 1(3): 1165-71 (2006)). A particular cutting angle was utilized to produce brain slices with a preserved cortico-striatal pathway. Finally, slices were selected, placed on Millicel (Millipore, PICM03050) and cultured in 6-well dishes at 35° C. and 5% CO2 in the presence of 1 ml of culture medium.
Slices were treated with different mTOR inhibitors from DIV14 to DIV21. The culture medium was exchanged every second day, and drugs were added in the fresh culture medium. We used this protocol to evaluate the action of the following mTOR inhibitors: RTB101 (50 and 300 nM in DMSO), everolimus (250 nM in DMSO), CCG168 (300 nM in DMSO), and everolimus+RTB101 (250 and 10, 250and 30 and 250 and 50 nM in DMSO). […]
High resolution images were acquired on an upright Zeiss LSM700 confocal microscope, using a Plan-Neofluar 40x/1.3 oil immersion objective. For the quantification of the PolyQ density and DARPP-32/NeuF signal intensity, at least three confocal 3D stacks/slice were acquired in striatum for each experiment (five slices per condition), and analyzed using Imaris 4.2 (BitplaneAG) and Image J softwares. All data are expressed as mean±SEM. […]

Cn1c(=O)n(-c2ccc(C(C)(C)C#N)cc2)c2c3cc(-c4cnc5ccccc5c4)ccc3ncc21 [RTB101, 2-methyl-2-[4-(3-methyl-2-oxo-8-quinolin-3-yl-2,3-dihydro-imidazo[4,5-c]quinolin-1-yl)-phenyl]-propionitrile]
concentration of dual PI3K/mTOR inhibition [1]: approximately 500 nmol/L | DARPP-32 level [2]: ineffective | neurofilament level [2]: ineffective
